PubChem BioAssay AID1259405 – NCATS | 2018

Test: 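Mouse-designed siRNAs used to find CHO productivity engineering targets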 (primary screen)
Cells: Chinese hamster CHO-K1 ovary cells with stable secreted eGFP expression
Knock-down reagent: single siRNA against mouse genes, 0.8 pmol siRNA per well (2 µl of 400 nM stock)
Timing: 3 days
Measured: 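Per-well intracellular GFP measured by laser scanning cytometry, plus viability from ATP luminescence, each relative to plate median of non-targeting control wells, in %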
Direction: GFP, % of control: higher = more GFP per well, higher productivity; viability (ATP), % of control: higher = more viable cells (more ATP)
Active means: 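a knock-down is called active if GFP reaches 120% or more of non-targeting control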
The deposit covers about 50,000 reagents; shown is a random part of them. Over the whole deposit, about 4,000 (8%) got an active call. 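Mouse siRNA library applied to hamster cells; one well for each siRNA.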 Reagents against one gene are numbered here.

no.	gene symbol	siRNA no.	GFP, % of control	viability (ATP), % of control	Call
1	Csrp1 (cysteine and glycine-rich protein 1)	1	111	84.5	inactive
2	Csrp1 (cysteine and glycine-rich protein 1)	2	59.6	64.3	inactive
3	Or4k51 (olfactory receptor family 4 subfamily K member 51)	1	80.9	72.4	inactive
4	Or4k51 (olfactory receptor family 4 subfamily K member 51)	2	99.4	82.4	inactive
5	Or4k51 (olfactory receptor family 4 subfamily K member 51)	3	93.1	89.7	inactive
6	Il6st (interleukin 6 signal transducer)	1	82.9	87	inactive
7	Il6st (interleukin 6 signal transducer)	2	77.2	64	inactive
8	Il6st (interleukin 6 signal transducer)	3	65.9	71.4	inactive
9	Dpagt1 (dolichyl-phosphate N-acetylglucosaminephosphotransferase 1)	1	84.3	92.6	inactive
10	Dpagt1 (dolichyl-phosphate N-acetylglucosaminephosphotransferase 1)	2	50.2	118	inactive
11	Dpagt1 (dolichyl-phosphate N-acetylglucosaminephosphotransferase 1)	3	104	112	inactive
12	Ablim1 (actin-binding LIM protein 1)	1	51.4	60.4	inactive
13	Ablim1 (actin-binding LIM protein 1)	2	64.9	79	inactive
14	Ablim1 (actin-binding LIM protein 1)	3	68.4	94.8	inactive
15	Ago3 (argonaute RISC catalytic subunit 3)	1	76.5	47.7	inactive
16	Ago3 (argonaute RISC catalytic subunit 3)	2	71.4	60	inactive
17	Ago3 (argonaute RISC catalytic subunit 3)	3	107	86.7	inactive
18	Or5b98 (olfactory receptor family 5 subfamily B member 98)	1	67.3	56.2	inactive
19	Or5b98 (olfactory receptor family 5 subfamily B member 98)	2	78.1	82.9	inactive
20	Or5b98 (olfactory receptor family 5 subfamily B member 98)	3	148	69.8	active
21	Penk (preproenkephalin)	1	64.2	69.7	inactive
22	Penk (preproenkephalin)	2	70.2	64.5	inactive
23	Penk (preproenkephalin)	3	67.3	77	inactive
24	Hemk2	1	183	80.6	active
25	Hemk2	2	74.6	62.1	inactive
26	Hemk2	3	67.4	66.5	inactive
27	Or1aa2 (olfactory receptor family 1 subfamily AA member 2)	1	53.7	60.8	inactive
28	Or1aa2 (olfactory receptor family 1 subfamily AA member 2)	2	51.2	44.1	inactive
29	Or1aa2 (olfactory receptor family 1 subfamily AA member 2)	3	61.1	77	inactive
30	Acta1 (actin alpha 1, skeletal muscle)	1	72.7	79.7	inactive
31	Acta1 (actin alpha 1, skeletal muscle)	2	57.5	105	inactive
32	Shd (src homology 2 domain-containing transforming protein D)	1	115	72.9	inactive
33	Shd (src homology 2 domain-containing transforming protein D)	2	44.7	48.7	inactive
34	Shd (src homology 2 domain-containing transforming protein D)	3	60.3	75.6	inactive
35	Ccl3 (C-C motif chemokine ligand 3)	1	124	145	active
36	Ccl3 (C-C motif chemokine ligand 3)	2	53	52.9	inactive
37	Frmd5 (FERM domain containing 5)	1	36.6	21.4	inactive
38	Frmd5 (FERM domain containing 5)	2	123	73.4	active
39	Frmd5 (FERM domain containing 5)	3	88.9	69.2	inactive
40	Rpp30 (ribonuclease P/MRP 30 subunit)	1	67.3	71.3	inactive
41	Rpp30 (ribonuclease P/MRP 30 subunit)	2	53.9	64	inactive
42	Rpp30 (ribonuclease P/MRP 30 subunit)	3	56.8	59	inactive
43	Immp1l	1	97.9	138	inactive
44	Immp1l	2	132	104	active
45	Immp1l	3	86.1	97.6	inactive
46	Cypt3 (cysteine-rich perinuclear theca 3)	1	99.2	96.3	inactive
47	Cypt3 (cysteine-rich perinuclear theca 3)	2	94.5	73	inactive
48	Cypt3 (cysteine-rich perinuclear theca 3)	3	103	110	inactive
49	Prr14 (proline rich 14)	1	37.5	67.6	inactive
50	Prr14 (proline rich 14)	2	93.9	129	inactive
51	Prr14 (proline rich 14)	3	109	139	inactive
52	Piezo2 (piezo-type mechanosensitive ion channel component 2)	1	48.2	34.7	inactive
53	Piezo2 (piezo-type mechanosensitive ion channel component 2)	2	68.7	80.1	inactive
54	Piezo2 (piezo-type mechanosensitive ion channel component 2)	3	81.2	101	inactive
55	Zfp474 (zinc finger protein 474)	1	106	62.9	inactive
56	Zfp474 (zinc finger protein 474)	2	123	90.1	active
57	Zfp474 (zinc finger protein 474)	3	156	147	active
58	Adam10 (a disintegrin and metallopeptidase domain 10)	1	74.9	58.3	inactive
59	Adam10 (a disintegrin and metallopeptidase domain 10)	2	69.9	68.5	inactive
60	Adam10 (a disintegrin and metallopeptidase domain 10)	3	72.1	68.5	inactive
61	Lgals8 (lectin, galactose binding, soluble 8)	1	85.3	60.3	inactive
62	Lgals8 (lectin, galactose binding, soluble 8)	2	35.5	50.1	inactive
63	Lgals8 (lectin, galactose binding, soluble 8)	3	52.7	61.1	inactive
64	Slc26a8	1	117	79.4	inactive
65	Slc26a8	2	95.2	89.1	inactive
66	Slc26a8	3	66.3	67.6	inactive
67	Slc29a2	1	63.5	84.1	inactive
68	Slc29a2	2	73.3	91.5	inactive
69	Slc29a2	3	111	104	inactive
70	Lhpp	1	107	85.2	inactive
71	Lhpp	2	82.1	75.3	inactive
72	Lhpp	3	78.6	92.7	inactive
73	Or4c124 (olfactory receptor family 4 subfamily C member 124)	1	55.1	61.2	inactive
74	Or4c124 (olfactory receptor family 4 subfamily C member 124)	2	98.1	64.6	inactive
75	Or4c124 (olfactory receptor family 4 subfamily C member 124)	3	32.1	87.9	inactive
76	Psenen (presenilin enhancer gamma secretase subunit)	1	154	96.5	active
77	Psenen (presenilin enhancer gamma secretase subunit)	2	98.5	57.9	inactive
78	Psenen (presenilin enhancer gamma secretase subunit)	3	62.2	65.6	inactive
79	Iqce (IQ motif containing E)	1	83.6	84.8	inactive
80	Iqce (IQ motif containing E)	2	71.8	76.5	inactive
81	Iqce (IQ motif containing E)	3	61.6	74.1	inactive
82	Nedd9	1	57	82	inactive
83	Nedd9	2	66.4	85.4	inactive
84	Synpo2l (synaptopodin 2-like)	1	70.8	83.7	inactive
85	Synpo2l (synaptopodin 2-like)	2	61.7	67.5	inactive
86	Ark2n (arkadia (RNF111) N-terminal like PKA signaling regulator 2N)	1	112	98.2	inactive
87	Ark2n (arkadia (RNF111) N-terminal like PKA signaling regulator 2N)	2	53.1	70.1	inactive
88	Ark2n (arkadia (RNF111) N-terminal like PKA signaling regulator 2N)	3	100	70	inactive
89	Mthfd1	1	108	116	inactive
90	Mthfd1	2	109	81.9	inactive
91	Mthfd1	3	141	89.3	active
92	Ncor2 (nuclear receptor co-repressor 2)	1	94	87	inactive
93	Ncor2 (nuclear receptor co-repressor 2)	2	131	99.6	active
94	Cts8 (cathepsin 8)	1	92.6	74.7	inactive
95	Cts8 (cathepsin 8)	2	75.4	71.8	inactive
96	Cts8 (cathepsin 8)	3	60.8	81.6	inactive
97	Btbd6 (BTB domain containing 6)	1	167	117	active
98	Btbd6 (BTB domain containing 6)	2	58.7	56	inactive
99	Btbd6 (BTB domain containing 6)	3	97	126	inactive
100	Vwa3a (von Willebrand factor A domain containing 3A)	1	86.1	61	inactive
101	Vwa3a (von Willebrand factor A domain containing 3A)	2	85.5	57.9	inactive
102	Vwa3a (von Willebrand factor A domain containing 3A)	3	67.9	47.8	inactive
103	Kcnj10	1	101	97.9	inactive
104	Kcnj10	2	71.7	92.7	inactive
105	Kcnj10	3	74.2	90.1	inactive
106	Ccdc54 (coiled-coil domain containing 54)	1	72.5	88.2	inactive
107	Ccdc54 (coiled-coil domain containing 54)	2	30.3	77.4	inactive
108	Ccdc54 (coiled-coil domain containing 54)	3	104	94.7	inactive
